Data published in the supplement of paper PMC6078165.
± gives the standard deviation of the averaged measurements. Values are relative to the signal before dosing, not to a vehicle control; the signal also falls without drug.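 Fibroblast labels denote human fibroblasts, mainly primary ones from uterus (C12385, HUF), lung (H6013), bone (Hs27A), adrenal (HADF) and skin (WS1), plus mammary HMF and breast cancer-associated Hs343T. Cancer cells are basal-like or mesenchymal-like triple-negative breast cancer lines. A hit is a response shift exceeding 3x replicate standard deviation. The tissue of the other fibroblasts is not given here.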

System: BT20
Test: relative JC-1 red fluorescence (viability) vs pre-drug, coculture with fibroblast (fraction); higher = more viable cancer cells
Conditions: 10 µM
Protocol: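 JC-1 labelled TNBC cells cocultured 1:1 (1,500 cells each) with CellTrace Violet stained primary or stromal fibroblasts in 384-well plates in FluoroBrite medium, treated with one of 42 anticancer drugs at 0.1, 1, 10 or 100 uM. JC-1 red fluorescence (mitochondrial integrity in cancer cells only) was read by plate reader every 8 h for 72 h. Values are normalised to each well's pre-drug value. The stock of one drug was tenfold lower, so its dose labels may be too high.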

## O=C(O)C1(C(=O)O)CCC1.[NH2-].[NH2-].[Pt+2] [Carboplatin]
8 h, coculture fibroblast: C12385
  relative JC-1 red fluorescence: 0.895 ± 0.012
8 h, coculture fibroblast: H6013
  relative JC-1 red fluorescence: 0.96193 ± 0.00069
8 h, coculture fibroblast: H6019
  relative JC-1 red fluorescence: 0.886 ± 0.019
8 h, coculture fibroblast: H6076
  relative JC-1 red fluorescence: 0.859 ± 0.13
8 h, coculture fibroblast: H6231
  relative JC-1 red fluorescence: 0.857 ± 0.11
8 h, coculture fibroblast: HADF
  relative JC-1 red fluorescence: 0.807 ± 0.16
8 h, coculture fibroblast: HCFa
  relative JC-1 red fluorescence: 0.926 ± 0.067
8 h, coculture fibroblast: HCPF
  relative JC-1 red fluorescence: 0.8 ± 0.065
8 h, coculture fibroblast: HHSteC
  relative JC-1 red fluorescence: 0.91967 ± 0.00027
8 h, coculture fibroblast: HMF
  relative JC-1 red fluorescence: 0.858 ± 0.17
8 h, coculture fibroblast: HPFa
  relative JC-1 red fluorescence: 0.92 ± 0.016
8 h, coculture fibroblast: HUF
  relative JC-1 red fluorescence: 0.8948 ± 0.0087
8 h, coculture fibroblast: Hs5
  relative JC-1 red fluorescence: 0.738 ± 0.032
8 h, coculture fibroblast: Hs27A
  relative JC-1 red fluorescence: 0.899 ± 0.039
8 h, coculture fibroblast: Hs343T
  relative JC-1 red fluorescence: 0.92 ± 0.096
8 h, coculture fibroblast: WS1
  relative JC-1 red fluorescence: 0.891 ± 0.018
16 h, coculture fibroblast: C12385
  relative JC-1 red fluorescence: 0.783 ± 0.017
16 h, coculture fibroblast: H6013
  relative JC-1 red fluorescence: 0.869 ± 0.032
16 h, coculture fibroblast: H6019
  relative JC-1 red fluorescence: 0.808 ± 0.027
16 h, coculture fibroblast: H6076
  relative JC-1 red fluorescence: 0.897 ± 0.053
16 h, coculture fibroblast: H6231
  relative JC-1 red fluorescence: 0.928 ± 0.0094
16 h, coculture fibroblast: HADF
  relative JC-1 red fluorescence: 0.91 ± 0.02
16 h, coculture fibroblast: HCFa
  relative JC-1 red fluorescence: 0.864 ± 0.014
16 h, coculture fibroblast: HCPF
  relative JC-1 red fluorescence: 0.9259 ± 0.0074
16 h, coculture fibroblast: HHSteC
  relative JC-1 red fluorescence: 0.8201 ± 0.00095
16 h, coculture fibroblast: HMF
  relative JC-1 red fluorescence: 0.907 ± 0.025
16 h, coculture fibroblast: HPFa
  relative JC-1 red fluorescence: 0.8433 ± 0.0024
16 h, coculture fibroblast: HUF
  relative JC-1 red fluorescence: 0.78 ± 0.022
16 h, coculture fibroblast: Hs5
  relative JC-1 red fluorescence: 0.869 ± 0.064
16 h, coculture fibroblast: Hs27A
  relative JC-1 red fluorescence: 0.954 ± 0.05
16 h, coculture fibroblast: Hs343T
  relative JC-1 red fluorescence: 0.887 ± 0.017
16 h, coculture fibroblast: WS1
  relative JC-1 red fluorescence: 0.782 ± 0.011
24 h, coculture fibroblast: C12385
  relative JC-1 red fluorescence: 0.7233 ± 0.0072
24 h, coculture fibroblast: H6013
  relative JC-1 red fluorescence: 0.854 ± 0.082
24 h, coculture fibroblast: H6019
  relative JC-1 red fluorescence: 0.766 ± 0.041
24 h, coculture fibroblast: H6076
  relative JC-1 red fluorescence: 0.812 ± 0.026
24 h, coculture fibroblast: H6231
  relative JC-1 red fluorescence: 0.8 ± 0.012
24 h, coculture fibroblast: HADF
  relative JC-1 red fluorescence: 0.81 ± 0.05
24 h, coculture fibroblast: HCFa
  relative JC-1 red fluorescence: 0.788 ± 0.01
24 h, coculture fibroblast: HCPF
  relative JC-1 red fluorescence: 0.8287 ± 0.0049
24 h, coculture fibroblast: HHSteC
  relative JC-1 red fluorescence: 0.799 ± 0.011
24 h, coculture fibroblast: HMF
  relative JC-1 red fluorescence: 0.815 ± 0.027
24 h, coculture fibroblast: HPFa
  relative JC-1 red fluorescence: 0.826 ± 0.014
24 h, coculture fibroblast: HUF
  relative JC-1 red fluorescence: 0.737 ± 0.062
24 h, coculture fibroblast: Hs5
  relative JC-1 red fluorescence: 0.911 ± 0.1
24 h, coculture fibroblast: Hs27A
  relative JC-1 red fluorescence: 0.873 ± 0.0088
24 h, coculture fibroblast: Hs343T
  relative JC-1 red fluorescence: 0.763 ± 0.008
24 h, coculture fibroblast: WS1
  relative JC-1 red fluorescence: 0.729 ± 0.031
32 h, coculture fibroblast: C12385
  relative JC-1 red fluorescence: 0.655 ± 0.011
32 h, coculture fibroblast: H6013
  relative JC-1 red fluorescence: 0.82 ± 0.087
32 h, coculture fibroblast: H6019
  relative JC-1 red fluorescence: 0.714 ± 0.056
32 h, coculture fibroblast: H6076
  relative JC-1 red fluorescence: 0.783 ± 0.011
32 h, coculture fibroblast: H6231
  relative JC-1 red fluorescence: 0.7465 ± 0.00081
32 h, coculture fibroblast: HADF
  relative JC-1 red fluorescence: 0.786 ± 0.068
32 h, coculture fibroblast: HCFa
  relative JC-1 red fluorescence: 0.829 ± 0.12
32 h, coculture fibroblast: HCPF
  relative JC-1 red fluorescence: 0.777 ± 0.011
32 h, coculture fibroblast: HHSteC
  relative JC-1 red fluorescence: 0.723 ± 0.011
32 h, coculture fibroblast: HMF
  relative JC-1 red fluorescence: 0.772 ± 0.032
32 h, coculture fibroblast: HPFa
  relative JC-1 red fluorescence: 0.744 ± 0.028
32 h, coculture fibroblast: HUF
  relative JC-1 red fluorescence: 0.66 ± 0.095
32 h, coculture fibroblast: Hs5
  relative JC-1 red fluorescence: 0.864 ± 0.11
32 h, coculture fibroblast: Hs27A
  relative JC-1 red fluorescence: 0.877 ± 0.0054
32 h, coculture fibroblast: Hs343T
  relative JC-1 red fluorescence: 0.693 ± 0.011
32 h, coculture fibroblast: WS1
  relative JC-1 red fluorescence: 0.664 ± 0.044
40 h, coculture fibroblast: C12385
  relative JC-1 red fluorescence: 0.603 ± 0.013
40 h, coculture fibroblast: H6013
  relative JC-1 red fluorescence: 0.777 ± 0.1
40 h, coculture fibroblast: H6019
  relative JC-1 red fluorescence: 0.675 ± 0.083
40 h, coculture fibroblast: H6076
  relative JC-1 red fluorescence: 0.753 ± 0.01
40 h, coculture fibroblast: H6231
  relative JC-1 red fluorescence: 0.687 ± 0.0097
40 h, coculture fibroblast: HADF
  relative JC-1 red fluorescence: 0.739 ± 0.086
40 h, coculture fibroblast: HCFa
  relative JC-1 red fluorescence: 0.766 ± 0.12
40 h, coculture fibroblast: HCPF
  relative JC-1 red fluorescence: 0.7252 ± 0.0035
40 h, coculture fibroblast: HHSteC
  relative JC-1 red fluorescence: 0.674 ± 0.027
40 h, coculture fibroblast: HMF
  relative JC-1 red fluorescence: 0.719 ± 0.043
40 h, coculture fibroblast: HPFa
  relative JC-1 red fluorescence: 0.693 ± 0.045
40 h, coculture fibroblast: HUF
  relative JC-1 red fluorescence: 0.606 ± 0.11
40 h, coculture fibroblast: Hs5
  relative JC-1 red fluorescence: 0.834 ± 0.12
40 h, coculture fibroblast: Hs27A
  relative JC-1 red fluorescence: 0.8204 ± 0.0019
40 h, coculture fibroblast: Hs343T
  relative JC-1 red fluorescence: 0.635 ± 0.037
40 h, coculture fibroblast: WS1
  relative JC-1 red fluorescence: 0.6 ± 0.053
48 h, coculture fibroblast: C12385
  relative JC-1 red fluorescence: 0.57 ± 0.015
48 h, coculture fibroblast: H6013
  relative JC-1 red fluorescence: 0.761 ± 0.1
48 h, coculture fibroblast: H6019
  relative JC-1 red fluorescence: 0.661 ± 0.091
48 h, coculture fibroblast: H6076
  relative JC-1 red fluorescence: 0.728 ± 0.025
48 h, coculture fibroblast: H6231
  relative JC-1 red fluorescence: 0.638 ± 0.0089
48 h, coculture fibroblast: HADF
  relative JC-1 red fluorescence: 0.682 ± 0.096
48 h, coculture fibroblast: HCFa
  relative JC-1 red fluorescence: 0.679 ± 0.048
48 h, coculture fibroblast: HCPF
  relative JC-1 red fluorescence: 0.6734 ± 0.0041
48 h, coculture fibroblast: HHSteC
  relative JC-1 red fluorescence: 0.644 ± 0.025
48 h, coculture fibroblast: HMF
  relative JC-1 red fluorescence: 0.66 ± 0.064
48 h, coculture fibroblast: HPFa
  relative JC-1 red fluorescence: 0.638 ± 0.041
48 h, coculture fibroblast: HUF
  relative JC-1 red fluorescence: 0.577 ± 0.14
48 h, coculture fibroblast: Hs5
  relative JC-1 red fluorescence: 0.803 ± 0.13
48 h, coculture fibroblast: Hs27A
  relative JC-1 red fluorescence: 0.803 ± 0.0052
48 h, coculture fibroblast: Hs343T
  relative JC-1 red fluorescence: 0.592 ± 0.028
48 h, coculture fibroblast: WS1
  relative JC-1 red fluorescence: 0.572 ± 0.047
56 h, coculture fibroblast: C12385
  relative JC-1 red fluorescence: 0.538 ± 0.0034
56 h, coculture fibroblast: H6013
  relative JC-1 red fluorescence: 0.757 ± 0.11
56 h, coculture fibroblast: H6019
  relative JC-1 red fluorescence: 0.633 ± 0.079
56 h, coculture fibroblast: H6076
  relative JC-1 red fluorescence: 0.71 ± 0.048
56 h, coculture fibroblast: H6231
  relative JC-1 red fluorescence: 0.591 ± 0.017
56 h, coculture fibroblast: HADF
  relative JC-1 red fluorescence: 0.652 ± 0.1
56 h, coculture fibroblast: HCFa
  relative JC-1 red fluorescence: 0.777 ± 0.26
56 h, coculture fibroblast: HCPF
  relative JC-1 red fluorescence: 0.626 ± 0.0078
56 h, coculture fibroblast: HHSteC
  relative JC-1 red fluorescence: 0.623 ± 0.029
56 h, coculture fibroblast: HMF
  relative JC-1 red fluorescence: 0.633 ± 0.079
56 h, coculture fibroblast: HPFa
  relative JC-1 red fluorescence: 0.605 ± 0.048
56 h, coculture fibroblast: HUF
  relative JC-1 red fluorescence: 0.553 ± 0.15
56 h, coculture fibroblast: Hs5
  relative JC-1 red fluorescence: 0.776 ± 0.13
56 h, coculture fibroblast: Hs27A
  relative JC-1 red fluorescence: 0.781 ± 0.013
56 h, coculture fibroblast: Hs343T
  relative JC-1 red fluorescence: 0.541 ± 0.033
56 h, coculture fibroblast: WS1
  relative JC-1 red fluorescence: 0.542 ± 0.057
64 h, coculture fibroblast: C12385
  relative JC-1 red fluorescence: 0.51333 ± 0.00011
64 h, coculture fibroblast: H6013
  relative JC-1 red fluorescence: 0.745 ± 0.1
64 h, coculture fibroblast: H6019
  relative JC-1 red fluorescence: 0.596 ± 0.088
64 h, coculture fibroblast: H6076
  relative JC-1 red fluorescence: 0.709 ± 0.051
64 h, coculture fibroblast: H6231
  relative JC-1 red fluorescence: 0.554 ± 0.015
64 h, coculture fibroblast: HADF
  relative JC-1 red fluorescence: 0.623 ± 0.11
64 h, coculture fibroblast: HCFa
  relative JC-1 red fluorescence: 0.75 ± 0.26
64 h, coculture fibroblast: HCPF
  relative JC-1 red fluorescence: 0.6098 ± 0.0005
64 h, coculture fibroblast: HHSteC
  relative JC-1 red fluorescence: 0.602 ± 0.032
64 h, coculture fibroblast: HMF
  relative JC-1 red fluorescence: 0.594 ± 0.088
64 h, coculture fibroblast: HPFa
  relative JC-1 red fluorescence: 0.561 ± 0.055
64 h, coculture fibroblast: HUF
  relative JC-1 red fluorescence: 0.531 ± 0.15
64 h, coculture fibroblast: Hs5
  relative JC-1 red fluorescence: 0.749 ± 0.13
64 h, coculture fibroblast: Hs27A
  relative JC-1 red fluorescence: 0.749 ± 0.013
64 h, coculture fibroblast: Hs343T
  relative JC-1 red fluorescence: 0.523 ± 0.032
64 h, coculture fibroblast: WS1
  relative JC-1 red fluorescence: 0.508 ± 0.059
72 h, coculture fibroblast: C12385
  relative JC-1 red fluorescence: 0.487 ± 0.013
72 h, coculture fibroblast: H6013
  relative JC-1 red fluorescence: 0.731 ± 0.1
72 h, coculture fibroblast: H6019
  relative JC-1 red fluorescence: 0.568 ± 0.08
72 h, coculture fibroblast: H6076
  relative JC-1 red fluorescence: 0.691 ± 0.06
72 h, coculture fibroblast: H6231
  relative JC-1 red fluorescence: 0.517 ± 0.022
72 h, coculture fibroblast: HADF
  relative JC-1 red fluorescence: 0.584 ± 0.098
72 h, coculture fibroblast: HCFa
  relative JC-1 red fluorescence: 0.703 ± 0.27
72 h, coculture fibroblast: HCPF
  relative JC-1 red fluorescence: 0.5642 ± 0.0038
72 h, coculture fibroblast: HHSteC
  relative JC-1 red fluorescence: 0.564 ± 0.033
72 h, coculture fibroblast: HMF
  relative JC-1 red fluorescence: 0.553 ± 0.082
72 h, coculture fibroblast: HPFa
  relative JC-1 red fluorescence: 0.502 ± 0.053
72 h, coculture fibroblast: HUF
  relative JC-1 red fluorescence: 0.502 ± 0.14
72 h, coculture fibroblast: Hs5
  relative JC-1 red fluorescence: 0.724 ± 0.13
72 h, coculture fibroblast: Hs27A
  relative JC-1 red fluorescence: 0.7 ± 0.0085
72 h, coculture fibroblast: Hs343T
  relative JC-1 red fluorescence: 0.479 ± 0.031
72 h, coculture fibroblast: WS1
  relative JC-1 red fluorescence: 0.492 ± 0.062
